This note sets out measurements from article PMC3554688, “Potassium and Ionic Strength Effects on the Conformational and Thermal Stability of Two Aldehyde Dehydrogenases Reveal Structural and Functional Roles of K^+-Binding Sites” (PLoS ONE, 2013).

In assay [1] the target is betaine aldehyde dehydrogenase from Pseudomonas aeruginosa (Pseudomonas aeruginosa) (UniProt Q9HTJ1). Kind of assay: SEC; Superdex 200 HR 10/30, room temperature; TEA-buffer (1 mM PIPES-TEA hydroxide pH 6.9, 1 mM EDTA, 0.5 mM DTT, 250 mM TEACl); data not shown; both purified. (Size exclusion chromatography separates by hydrodynamic size, large species first.)
For assay [2], the target named is betaine aldehyde dehydrogenase from spinach (Spinacia oleracea) (Spinacia oleracea) (UniProt P17202). Described as above.

No constants are given. Whether binding was seen depends on the method and setting. Some entries that bind do so weakly or less than the wild type.

B1: betaine aldehyde dehydrogenase from Pseudomonas aeruginosa (enzyme)
chain: MARFEEQKLYIGGRYVEASSGATFETINPANGEVLAKVQRASREDVERAVQSAVEGQKVWAAMTAMQRSRILRRAVDILRERNDELAALETLDTGKPLAETRSVDIVTGADVLEYYAGLVPAIEGEQIPLRETSFVYTRREPLGVVAGIGAWNYPVQIALWKSAPALAAGNAMIFKPSEVTPLTALKLAEIYTEAGVPDGVFNVLTGSGREVGQWLTEHPLIEKISFTGGTSTGKKVMASASSSSLKEVTMELGGKSPLIIFPDADLDRAADIAVMANFFSSGQVCTNGTRVFIHRSQQARFEAKVLERVQRIRLGDPQDENTNFGPLVSFPHMESVLGYIESGKAQKARLLCGGERVTDGAFGKGAYVAPTVFTDCRDDMTIVREEIFGPVMSILVYDDEDEAIRRANDTEYGLAAGVVTQDLARAHRAIHRLEAGICWINTWGESPAEMPVGGYKQSGVGRENGLTTLAHYTRIKSVQVELGDYASVF
notes: betaine aldehyde dehydrogenase (BADH, ALDH9) of Pseudomonas aeruginosa; recombinant; Homotetramer; also called PaBADH; ALDH9; source: E. coli, purified to homogeneity
Turning to B1, the binding result in assay [1] was “binds”.

B2: betaine aldehyde dehydrogenase from spinach (Spinacia oleracea) (enzyme)
chain: MAFPIPARQLFIDGEWREPIKKNRIPVINPSTEEIIGDIPAATAEDVEVAVVAARRAFRRNNWSATSGAHRATYLRAIAAKITEKKDHFVKLETIDSGKPFDEAVLDIDDVASCFEYFAGQAEALDGKQKAPVTLPMERFKSHVLRQPLGVVGLISPWNYPLLMATWKIAPALAAGCTAVLKPSELASVTCLEFGEVCNEVGLPPGVLNILTGLGPDAGAPLVSHPDVDKIAFTGSSATGSKVMASAAQLVKPVTLELGGKSPIVVFEDVDIDKVVEWTIFGCFWTNGQICSATSRLLVHESIAAEFVDKLVKWTKNIKISDPFEEGCRLGPVISKGQYDKIMKFISTAKSEGATILYGGSRPEHLKKGYYIEPTIVTDISTSMQIWKEEVFGPVLCVKTFSSEDEAIALANDTEYGLAAAVFSNDLERCERITKALEVGAVWVNCSQPCFVQAPWGGIKRSGFGRELGEWGIQNYLNIKQVTQDISDEPWGWYKS
notes: betaine aldehyde dehydrogenase (BADH, ALDH10) of Spinacia oleracea; recombinant; Homodimer in K-buffer; associates into tetramers in the non-salt buffer; also called SoBADH; ALDH10; source: E. coli, purified to homogeneity
For B2, the binding entry in assay [2] is “binds”.
